{
  "source": "paper PMC10992428",
  "molecular_target": "T1, MtlR (Bacillus licheniformis) (UniProt Q62YQ4)",
  "T1 sequence (looked up, limits assumed)": "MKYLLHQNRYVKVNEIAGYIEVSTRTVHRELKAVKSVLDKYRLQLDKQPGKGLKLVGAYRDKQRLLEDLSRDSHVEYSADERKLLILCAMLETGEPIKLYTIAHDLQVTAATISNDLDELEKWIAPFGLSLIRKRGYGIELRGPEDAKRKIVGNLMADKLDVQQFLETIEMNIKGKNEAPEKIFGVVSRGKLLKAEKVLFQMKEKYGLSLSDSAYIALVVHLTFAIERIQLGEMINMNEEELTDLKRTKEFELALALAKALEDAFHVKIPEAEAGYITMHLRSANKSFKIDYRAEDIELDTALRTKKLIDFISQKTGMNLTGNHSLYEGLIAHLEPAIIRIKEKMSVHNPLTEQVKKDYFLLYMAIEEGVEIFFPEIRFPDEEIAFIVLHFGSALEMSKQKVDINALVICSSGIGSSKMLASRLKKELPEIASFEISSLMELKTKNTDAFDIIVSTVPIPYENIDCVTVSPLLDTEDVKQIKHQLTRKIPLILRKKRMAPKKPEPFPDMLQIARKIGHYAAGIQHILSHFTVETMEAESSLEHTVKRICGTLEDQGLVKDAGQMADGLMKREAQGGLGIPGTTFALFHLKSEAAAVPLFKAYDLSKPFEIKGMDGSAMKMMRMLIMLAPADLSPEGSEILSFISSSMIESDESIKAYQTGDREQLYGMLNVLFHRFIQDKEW",
  "assay": "EMSA",
  "details": "10 nM biotin probe, 10 mM Tris-HCl pH 7.4, 1 mM DTT, 1 mM EDTA, 50 mM KCl, 1 mM MgCl2, 0.05 ug/uL poly(dI-dC), 25 C, 20 min, 4% acrylamide, 0.5x TBE, recombinant protein, protein details: His-tag, label: biotin",
  "note": "Construct, isoform or probe ends are uncertain for at least one entry. Negatives hold for the conditions tested. Where a protein sequence is shown, tags need not be part of it.",
  "data": [
    {"sequence": "TCCCCGTCAGATGGCCGGGAGCCGGATGAACCACCATTCCGCGCGGCTTGTTGACGACAAGAACGTCCTGATCTTATTATAATATAAGCAAAAAACTCATAAAAAGGAAAAGCATTGACCTGAAAACTTATCGGTAAAGTATGATATAATACAAAAAGACCGATTAGAGGGGAGAGAGGAAACATGCCTTCAGTTGAAAGTTTTGAACTTGACCATAATGCAGTAAAAGCGCCTTACGTCAGACACTGCGGCGTCCATAAAGTGGGATCCCTCGAGCGG (double strand) [Pshutle09]", "values": [
      {"measurement": "binding result", "setting": "0.4 uM MtlR", "result": "no binding"}
    ]},
    {"sequence": "TCCCCGTCAGATGGCCGGGAGCCGGATGAACCACCATTCCGCGCGGCTTGTTGACGACAAGAACGTCCTGATCTTATTATAATATAAGCAAAAAACTCCCCGGGCACGGCTCCTGCCAAATAAAAAGGAAAAGCATTGACCTGAAAACTTATCGGTAAAGTATGATATAATACAAAAAGACCGATTAGAGGGGAGAGAGGAAACATGCCTTCAGTTGAAAGTTTTGAACTTGACCATAATGCAGTAAAAGCGCCTTACGTCAGACACTGCGGCGTCCATAAAGTGGGATCCCTCGAGCGG (double strand) [A-1 (MtlR box 1)]", "values": [
      {"measurement": "binding result", "setting": "0.5, 1.0 uM MtlR", "result": "no binding"}
    ]},
    {"sequence": "TCCCCGTCAGATGGCCGGGAGCCGGATGAACCACCATTCCGCGCGGCTTGTTGACGACAAGAACGTCCTGATCTTATTATAATATAAGCAAAAAACTCTTGTCACACGGCTCCCCCGGGATAAAAAGGAAAAGCATTGACCTGAAAACTTATCGGTAAAGTATGATATAATACAAAAAGACCGATTAGAGGGGAGAGAGGAAACATGCCTTCAGTTGAAAGTTTTGAACTTGACCATAATGCAGTAAAAGCGCCTTACGTCAGACACTGCGGCGTCCATAAAGTGGGATCCCTCGAGCGG (double strand) [A-2 (MtlR box 2)]", "values": [
      {"measurement": "binding result", "setting": "0.5, 1.0 uM MtlR", "result": "no binding"}
    ]},
    {"sequence": "TCCCCGTCAGATGGCCGGGAGCCGGATGAACCACCATTCCGCGCGGCTTGTTGACGACAAGAACGTCCTGATCTTATTATAATATAAGCAAAAAACTCTTGTCACACGGCTCCTGCCAAATAAAAAGGAAAAGCATTGACCTGAAAACTTATCGGTAAAGTATGATATAATACAAAAAGACCGATTAGAGGGGAGAGAGGAAACATGCCTTCAGTTGAAAGTTTTGAACTTGACCATAATGCAGTAAAAGCGCCTTACGTCAGACACTGCGGCGTCCATAAAGTGGGATCCCTCGAGCGG (double strand) [A-6 (MtlR box 6)]", "values": [
      {"measurement": "binding result", "setting": "0.5, 1.0 uM MtlR", "result": "binds"}
    ]},
    {"sequence": "TCCCCGTCAGATGGCCGGGAGCCGGATGAACCACCATTCCGCGCGGCTTGTTGACGACAAGAACGTCCTGATCTTATTATAATATAAGCAAAAAACTCTTGTCACACGGCTCCTGCCAAATAAAAAGGAAAAGCATTGACCTGAAAACTTATCGGTAAAGTATGATATAATACAAAAAGACCGATTAGAGGGGAGAGAGGAAACATGCCTTCAGTTGAAAGTTTTGAACTTGACCATAATGCAGTAAAAGCGCCTTACGTCAGACACTGCGGCGTCCATAAAGTGGGATCCCTCGAGCGG (double strand) [Pshutle09A (MtlR box A)]", "values": [
      {"measurement": "binding result", "setting": "0.4 uM MtlR", "result": "binds"}
    ]},
    {"sequence": "TCCCCGTCAGATGGCCGGGAGCCGGATGAACCACCATTCCGCGCGGCTTGTTGACGACAAGAACGTCCTGATCTTATTATAATATAAGCAAAAAACTCTTGTCACAGTATGTGCCAAATAAAAAGGAAAAGCATTGACCTGAAAACTTATCGGTAAAGTATGATATAATACAAAAAGACCGATTAGAGGGGAGAGAGGAAACATGCCTTCAGTTGAAAGTTTTGAACTTGACCATAATGCAGTAAAAGCGCCTTACGTCAGACACTGCGGCGTCCATAAAGTGGGATCCCTCGAGCGG (double strand) [Pshutle09B (MtlR box B)]", "values": [
      {"measurement": "binding result", "setting": "0.4 uM MtlR", "result": "binds"}
    ]},
    {"sequence": "TCCCCGTCAGATGGCCGGGAGCCGGATGAACCACCATTCCGCGCGGCTTGTTGACGACAAGAACGTCCTGATCTTATTATAATATAAGCAAAAAACTCTTGTCAGGCTCCTGCCAAATAAAAAGGAAAAGCATTGACCTGAAAACTTATCGGTAAAGTATGATATAATACAAAAAGACCGATTAGAGGGGAGAGAGGAAACATGCCTTCAGTTGAAAGTTTTGAACTTGACCATAATGCAGTAAAAGCGCCTTACGTCAGACACTGCGGCGTCCATAAAGTGGGATCCCTCGAGCGG (double strand) [A-5 (MtlR box 5)]", "values": [
      {"measurement": "binding result", "setting": "0.5, 1.0 uM MtlR", "result": "binds"}
    ]}
  ]
}
